For at least one compound, name, drawing or mass did not settle the structure.
Target: T1, solubilized Aβ40 (Homo sapiens, UniProt P05067)
T1 construct: ID #; M.W; Structure; IAPP; Aβ1-40
Experiment: MS assay for binding to soluble Aβ40
Conditions: 200 μM compound/20 μM Aβ40 or 400 μM/40 μM Aβ40 (not stated which), 20% Ethanol, pH 7.4

The chains behind the UniProt entries cited, without tags or fusion partners. Residues count along the entry.
UniProt P05067, 672-711 limits assumed: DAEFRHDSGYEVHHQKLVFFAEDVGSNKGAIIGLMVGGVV

For `NC(CS(=O)(=O)O)c1ccc2ccccc2c1` (stereo not shown) [Compound O, 2-Amino-2-Naphthylethanesulfonic Acid], the “MS Results Aβ1-40 (binding)” value was “+ (Weak Binding 20-44%)”.
